In PMC4894603 one finds binding data, which are given here for 1 molecule.

These are yes or no findings as the source states them, for the method shown. In cells and extracts the contact can be indirect. Some binding calls cover weakened binding; strength is not graded here.

This assay addresses AGIA-RelA (human), Q04206. The experiment in a line: co-IP; lysate of AGIA-RelA transfected HEK293T cells (150 mM NaCl, 25 mM Tris-HCl pH 7.5, 1 mM EDTA, 1% Triton X-100) with anti-AGIA antibody sepharose, 4°C overnight; blot with IκBα specific antibody; control with protein G sepharose and normal rabbit IgG. The following applies: remark: other sources report otherwise.

B1: IκBα, P25963 1-317 (protein)
chain: MFQAAERPQEWAMEGPRDGLKKERLLDDRHDSGLDSMKDEEYEQMVKELQEIRLEPQEVPRGSEPWKQQLTEDGDSFLHLAIIHEEKALTMEVIRQVKGDLAFLNFQNNLQQTPLHLAVITNQPEIAEALLGAGCDPELRDFRGNTPLHLACEQGCLASVGVLTQSCTTPHLHSILKATNYNGHTCLHLASIHGYLGIVELLVSLGADVNAQEPCNGRTALHLAVDLQNPDLVSLLLKCGADVNRVTYQGYSPYQLTWGRPSTRIQQQLGQLTLENLQMLPESEDEESYDTESEFTEFTEDELPYDDCVFGGQRLTL
In the case of B1, the binding entry is “binds”.
